PubChem BioAssay AID1224828 – NIAID – 2016

- Screen: 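Knock-downs that increase or decrease LPS-induced p65 nuclear translocation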 (primary screen)
- System: mouse RAW264.7 G9 macrophage reporter cells (GFP-p65, Tnf promoter-mCherry)
- Reagent: siRNA pool against mouse genes, 100 nM
- Time to read-out: 2 days siRNA transfection, then 40 min LPS before fixation
- Treatment: LPS (Salmonella minnesota R595) at 10 ng/ml
- Measurement: 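Imaged p65 nuclear translocation ratio, normalised to the plate median, converted to robust z-scores and averaged across two replicates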
- Reading the numbers: p65 translocation robust z-score: higher = more nuclear NF-kappaB p65 after LPS than the plate median; nuclear/cytoplasmic p65 ratio: higher = more nuclear NF-kappaB p65
- Rule for the call: 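Active if robust z is above 3.3 (negative regulators) or below -1.56, the Tlr4 control median (positive regulators); activity score 50 or more; control wells not called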
- Calls: active = hit (p65 shift raised or lowered); inactive = no clear change
The whole screen tested about 17,000 reagents; shown is a random part of them. Over the whole deposit, 762 (4.5%) are marked active. 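Active calls include both raised and lowered p65 entry, mostly lowered; wells with fewer than 50 cells lack a z-score.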 Raw values are not corrected between plates.

Gene,p65 translocation robust z-score,"nuclear/cytoplasmic p65 ratio, rep 1","nuclear/cytoplasmic p65 ratio, rep 2",low cell count flag,call
Pole4 (GeneID 66979),,1.34,1.16,fewer than 50 cells per well; well left out of scoring,inactive
Akr1c18 (GeneID 105349),,1.76,1.91,fewer than 50 cells per well; well left out of scoring,inactive
Zfp874a (GeneID 238692),,1.26,1.47,fewer than 50 cells per well; well left out of scoring,inactive
Nup88 (GeneID 19069),1.11,1.96,1.63,enough cells to score,inactive
Pdcd5 (GeneID 56330),0.46,1.54,1.44,enough cells to score,inactive
Arrdc4 (GeneID 66412),-1.39,1.32,1.39,enough cells to score,inactive
Mpzl3 (GeneID 319742),-1.85,1.14,1.26,enough cells to score,active
Zc3h15 (GeneID 69082),-0.73,1.33,1.36,enough cells to score,inactive
Nup62 (GeneID 18226),0.34,1.89,1.48,enough cells to score,inactive
Serpina3m (GeneID 20717),-0.14,1.33,1.29,enough cells to score,inactive
Efemp2 (GeneID 58859),-0.27,1.47,1.29,enough cells to score,inactive
Or4k45 (GeneID 258398),0.35,1.58,1.54,enough cells to score,inactive
Or5d16 (GeneID 258636),0.19,1.75,1.56,enough cells to score,inactive
V1rb6 (retired record) (GeneID 107797),0.32,1.42,1.27,enough cells to score,inactive
Vta1 (GeneID 66201),,1.3,1.38,fewer than 50 cells per well; well left out of scoring,inactive
H2ac1 (GeneID 319163),1.08,1.82,1.69,enough cells to score,inactive
Vmn1r32 (GeneID 171188),-0.38,1.33,1.2,enough cells to score,inactive
Spata4 (GeneID 69281),-0.8,1.33,1.13,enough cells to score,inactive
Hadhb (GeneID 231086),0.12,1.45,1.39,enough cells to score,inactive
Rit2 (GeneID 19762),-1.86,1.28,1.23,enough cells to score,active
Gsdmc (GeneID 83492),-0.38,1.73,1.53,enough cells to score,inactive
Slc26a5 (GeneID 80979),0.1,1.42,1.2,enough cells to score,inactive
Tcf7 (GeneID 21414),0.76,1.56,1.69,enough cells to score,inactive
Tyr (GeneID 22173),0.28,1.46,1.63,enough cells to score,inactive
Agpat5 (GeneID 52123),0.27,1.58,1.61,enough cells to score,inactive
Cldn8 (GeneID 54420),,1.28,1.42,fewer than 50 cells per well; well left out of scoring,inactive
Ogdh (GeneID 18293),-0.53,1.42,1.31,enough cells to score,inactive
Ube2dnl1 (GeneID 237009),2.34,2.14,1.83,enough cells to score,inactive
Zfp646 (GeneID 233905),-1.22,1.21,1.42,enough cells to score,inactive
Sh3bgrl2 (GeneID 212531),-0.09,1.35,1.52,enough cells to score,inactive

A few values from the list:
Cldn8 (GeneID 54420), call → inactive
For “low cell count flag”, Ogdh (GeneID 18293) has enough cells to score
Result of Agpat5 (GeneID 52123) in “low cell count flag”: enough cells to score
Result of Rit2 (GeneID 19762) under “low cell count flag”: enough cells to score
Under “low cell count flag”, Arrdc4 (GeneID 66412) has enough cells to score

The listing continues.
Gene,p65 translocation robust z-score,"nuclear/cytoplasmic p65 ratio, rep 1","nuclear/cytoplasmic p65 ratio, rep 2",low cell count flag,call
Gstt1 (GeneID 14871),0.32,1.45,1.44,enough cells to score,inactive
Spg21 (GeneID 27965),-0.42,1.38,1.17,enough cells to score,inactive
Cdcp3 (GeneID 71395),0.49,1.37,1.58,enough cells to score,inactive
Or4k5 (GeneID 258275),1.99,1.5,1.5,enough cells to score,inactive
Atp8b5 (GeneID 320571),,1.3,1.68,fewer than 50 cells per well; well left out of scoring,inactive
Trp63 (GeneID 22061),0.49,1.61,1.46,enough cells to score,inactive
Eif1b (GeneID 68969),-0.26,1.38,1.53,enough cells to score,inactive
Smarcd1 (GeneID 83797),0.63,1.62,1.67,enough cells to score,inactive
Or2w2 (GeneID 258533),,1.43,1.43,fewer than 50 cells per well; well left out of scoring,inactive
Prss37 (GeneID 67690),-0.2,1.38,1.38,enough cells to score,inactive
Rps18 (GeneID 20084),0.66,1.51,1.42,enough cells to score,inactive
Mrpl58 (GeneID 68572),-0.29,1.41,1.32,enough cells to score,inactive
Dcdc2a (GeneID 195208),-0.54,1.56,1.4,enough cells to score,inactive
Rab18 (GeneID 19330),-0.68,1.45,1.39,enough cells to score,inactive
Srm (GeneID 20810),-1.17,1.35,1.42,enough cells to score,inactive
Insl5 (GeneID 23919),-0.45,1.45,1.29,enough cells to score,inactive
Ifnlr1 (GeneID 242700),-0.88,1.33,1.29,enough cells to score,inactive
Glod4 (GeneID 67201),,1.37,1.33,fewer than 50 cells per well; well left out of scoring,inactive
Klhl6 (GeneID 239743),,1.33,1.46,fewer than 50 cells per well; well left out of scoring,inactive
Pdgfa (GeneID 18590),-0.44,1.4,1.35,enough cells to score,inactive
Traf3ip2 (GeneID 103213),0.11,1.67,1.65,enough cells to score,inactive
Kif2c (GeneID 73804),0.6,1.59,1.42,enough cells to score,inactive
Kctd15 (GeneID 233107),-0.11,1.55,1.4,enough cells to score,inactive
Tmem59 (GeneID 56374),,1.15,1.16,fewer than 50 cells per well; well left out of scoring,inactive
Nxpe2 (GeneID 78252),,1.27,1.33,fewer than 50 cells per well; well left out of scoring,inactive
Cdk13 (GeneID 69562),-0.01,1.66,1.4,enough cells to score,inactive
Clcn1 (GeneID 12723),0.59,1.49,1.5,enough cells to score,inactive
Stoml2 (GeneID 66592),0.25,1.44,1.26,enough cells to score,inactive
H2-M1 (GeneID 224756),1.57,1.35,1.78,enough cells to score,inactive
